Some of the results follow. These are further read-outs of the screen, such as a control signal, another cell line or another target. No call is given for them. Compounds called inactive in the main read-out are mostly missing here. The note in brackets gives the kind of curve behind each potency; many fits are weak.

The nature of this test: qHTS Assay to Find Inhibitors of Chronic Active B-Cell Receptor Signaling. The settings on record: ABC-DLBCL IkBa-CBG/CBR reporter, luminescence ratio (green luciferase fused to IkBa over red control in TMD8 lymphoma cells), 4 h. Summed up:
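Compounds up to 46 uM were incubated four hours with TMD8 cells whose green CBG68 luciferase is fused to IkappaBalpha; red CBR luminescence normalised the signal, and concentration-effect curves were fitted to fusion, red and ratio data.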
Background: Quantitative high-throughput screening tests each substance at several concentrations.

Setting [1] is: measured here: CBR red luminescence, cell number.
Setting [2] is: measured here: IkBa-CBG green luminescence.

One may read the AC50 as the concentration giving half of the maximal activity seen. Consider `O=C(O)c1cccc2c1C(=O)c1ccccc1-2`, for which the AC50 reads like this: under setting [1], 15.8 µM [rising, single point]; under setting [2], 17.8 µM [rising, partial curve, poor fit].

Regarding `CC[C@]1(O)C[C@@H]2CN(CCc3c([nH]c4ccccc34)[C@@](C(=O)OC)(c3cc4c(cc3OC)N(C)[C@H]3[C@@](O)(C(=O)OC)[C@H](OC(C)=O)[C@]5(CC)C=CCN6CC[C@]43[C@@H]65)C2)C1`, the AC50 by setting is: under setting [1], 2.24 µM [rising, full curve]; under setting [2], 2.24 µM [falling, full curve].

In the case of `Cc1ccc(-c2nnc(NCc3nc4ccccc4[nH]3)c3ccccc23)cc1S(=O)(=O)N1CCCCC1`, the AC50 under setting [1] was 29.1 µM [falling, single point].

In the case of `CC(C)CN(CC(C)C)C(=O)CN1C(=O)NC2(CCc3ccccc3C2)C1=O` (stereo not drawn), the AC50 under setting [1] was 6.31 µM [rising, single point].

Regarding `Cc1cc(C)cc(NC(=O)CSc2nc(=O)n(Cc3ccccn3)c3c2CCC3)c1`, the AC50 under setting [1] was 0.794 µM [falling, full curve, poor fit].

For `C/C=C(\C)C(=O)N1CC2(CC(c3cccc(NC(=O)COc4ccc(Cl)cc4)c3)=NO2)C[C@@H]1C(N)=O` (stereo partly drawn), the half-maximal activity concentration (AC50) under setting [1] is 7.08 µM [falling, full curve, poor fit].

As to `COc1ccc(Cc2nc3ccc(C(=O)NCCn4cccn4)cc3o2)cc1`, the half-maximal activity concentration (AC50) under setting [1] was 2.51 µM [rising, full curve, poor fit].

For the compound `Cc1ccc(N(CC(O)CN2CCCCC2)S(=O)(=O)c2ccccc2)cc1` (stereo not drawn), under setting [1], the AC50 is 35.5 µM [falling, single point].

With `COc1ccccc1NC(=O)CON=C(N)CC(=O)NC1CCCCC1`, under setting [1], the AC50 is 8.2 µM [falling, partial curve].

In the case of `Cc1ccc(Cl)cc1NC(=S)N/N=C/c1cccc2ccccc12`, the AC50 was 11.2 µM [rising, single point] under setting [1] and 10 µM [falling, partial curve] under setting [2].

On to `CCOC(=O)CNC(=O)c1ccc(Br)s1`, for which, under setting [1], the AC50 was 0.562 µM [rising, full curve, poor fit].

Turning to `COC(=O)c1c(NC(=O)COC(=O)CCNS(=O)(=O)c2ccc(NC(C)=O)cc2)sc(C)c1C`, the AC50 under setting [1] was 23.1 µM [rising, single point].

Consider `COc1cccc(/C=N/NC(=O)c2cc3cc([N+](=O)[O-])ccc3s2)c1O`, for which the AC50 under setting [2] was 0.651 µM [falling, full curve, poor fit].

On to `O=C1C(=C(O)c2ccccc2)C(=O)c2ccccc21`, for which the AC50 under setting [1] was 35.5 µM [falling, single point].

Turning to `NCC(c1ccc(Cl)cc1Cl)c1c[nH]c2ccccc12` (stereo not drawn), the AC50 under setting [1] is 10 µM [falling, partial curve, poor fit].

For the compound `O=C1C2=C(Nc3ccccc3SC2c2ccco2)c2ccccc21` (stereo not drawn), under setting [1], the AC50 is 29.1 µM [falling, single point].

With `O=C(N/N=C/C(Cl)=C\c1ccccc1)c1cnccn1`, under setting [1], the AC50 is 32.6 µM [falling, single point].

For the compound `c1ccc(CCN2CCN=C2Nc2ccccc2)cc1`, the AC50 under setting [1] was 6.31 µM [falling, single point].

Turning to `COC(=O)c1ccc(C23CC4(C2)[C@H](CN(Cc2cccnc2)[C@@H]4c2ccccc2)C3c2ccc(Cl)nc2)cc1` (stereo partly drawn), under setting [1], the AC50 is 15.8 µM [falling, single point].

For the compound `CCc1ccc(N(CC(=O)NC)S(C)(=O)=O)cc1`, the concentration at half-maximal activity (AC50) under setting [1] was 0.092 µM [falling, full curve, poor fit].

For `COc1ccccc1CNc1nccn(-c2ccccc2)c1=O`, under setting [1], the AC50 is 8.91 µM [falling, partial curve].

Consider `CCC(Oc1ccc(Br)cc1Cl)C(=O)Nc1nnc(C2CC2)s1` (stereo not drawn), for which, under setting [1], the AC50 is 20 µM [falling, single point].

For the compound `Cc1ccc2[nH]cc(CCNC(=O)c3ccc4c(c3)OCO4)c2c1`, the AC50 under setting [1] was 8.91 µM [falling, partial curve, poor fit].

On to `Cc1ccc2c(c1)c(-c1csc(N)n1)c(C)n2C`, for which, under setting [1], the AC50 is 8.91 µM [falling, partial curve, poor fit].

For the compound `COc1ccc(NC(=S)NN2CCN(C)CC2)cc1OC`, the AC50 under setting [1] is 2.91 µM [rising, partial curve].

As for `Cc1ccc(Nc2nc3c(s2)CCC3)c(C)c1`, under setting [1], the AC50 was 2.59 µM [falling, full curve].

As for `Cc1ccc(NC(=O)CN2CCCC2)c2c1CC(C)(C)O2`, under setting [1], the AC50 was 3.98 µM [falling, partial curve, poor fit].

As for `Cc1cc(OCC(=O)N2CCc3ccccc3C2)c(C)cc1Br`, the AC50 under setting [1] is 35.5 µM [falling, single point].

With `Cc1ccc(C2CC(=O)NC3=C2C(=O)CCC3)cc1Br` (stereo not drawn), the AC50 under setting [1] is 5.01 µM [falling, partial curve, poor fit].

In the case of `O=[N+]([O-])c1ccc(CNCc2cc(Cl)ccc2O)cc1`, the AC50 under setting [1] was 29.1 µM [falling, single point].

For the compound `Cc1nc(NCCN2CCOCC2)c2nnn(Cc3ccccc3Cl)c2n1`, the AC50 under setting [1] was 32.6 µM [falling, single point].

In the case of `CC(C)NC(=O)c1ccc(COc2ccc(C(C)(C)C)cc2)o1`, under setting [1], the AC50 is 11.2 µM [falling, partial curve, poor fit].

Consider `CCOc1ccccc1NC(=O)c1c(NCc2sccc2C)sc2c1CCC(C)C2` (stereo not drawn), for which the AC50 under setting [1] was 11.2 µM [falling, partial curve, poor fit].

Consider `CCOc1ccc2nc(N/C(N)=N/S(C)(=O)=O)nc(C)c2c1`, for which the AC50 under setting [1] was 2.24 µM [rising, partial curve].

`O=C(NCc1ccccc1)c1csc2c1CCCCC2`: the AC50 under setting [1] is 13 µM [rising, partial curve].

Regarding `O=C(Nc1ccc(Cl)cc1)N1CCC(c2ccccc2)C1` (stereo not drawn), the half-maximal activity concentration (AC50) under setting [1] was 10 µM [falling, partial curve, poor fit].

Take `O=C(Nc1ccc(Br)cc1)c1cccc(N2C(=O)C3C4C=CC(C4)C3C2=O)c1` (stereo not drawn): the AC50 under setting [1] is 35.5 µM [falling, single point].

For `CC1Cc2ccccc2N1C(=O)CSc1ncc(-c2ccc(F)cc2)n1C` (stereo not drawn), under setting [1], the AC50 was 8.2 µM [falling, partial curve].

On to `c1ccc2c(Nc3ccc4c(c3)OCCO4)c3c(nc2c1)CCCC3`, for which the AC50 under setting [1] is 35.5 µM [falling, single point].

For `O=C(CN1C(=O)C(=O)N(C2CCCC2)C1=O)NCCc1ccc(Cl)cc1Cl`, the AC50 under setting [1] is 23.1 µM [rising, single point].

Values taken from PubChem BioAssay AID493014 (National Center for Advancing Translational Sciences (NCATS), 2011).
